Laboratory results: PubChem BioAssay AID652272 (Drosophila RNAi Screening Center, 2013)

Aim: 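Genome-wide knock-down search for components of Hedgehog signalling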 (primary screen)
System: Drosophila clone 8 (Cl8) cells
Reagent: long dsRNA against Drosophila genes
Detection: 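Firefly light from a Hedgehog-responsive ptc promoter reporter and Renilla reference light, both read on a plate reader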
Scale: firefly Hh reporter signal: higher = more ptc reporter light; Renilla reference signal: higher = more Renilla control light
Active means: 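Hit when the z-score averaged over two replicates is under -2 or over +3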
Meaning of the calls: active = hit: reporter lowered or raised; inactive = not a hit
The deposit covers about 21,000 reagents; shown is an unselected part of those that have a named target and a result. Of all reagents, 503 (2.4%) got an active call. 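Raw plate light values, not normalised; calls rest on replicate z-scores that were not deposited; hits include reporter decreases as well as increases.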 A plus sign joins genes that one reagent is predicted to hit. The record does not give: the amount of reagent, the time to read-out.

{"Target gene":"mtrm (matrimony)","dsRNA":"DRSC10322","firefly Hh reporter signal, replicate 1":72316,"firefly Hh reporter signal, replicate 2":29158,"Renilla reference signal, replicate 1":3603,"Renilla reference signal, replicate 2":1228,"call":"inactive"}
{"Target gene":"Rgk3 (Rad, Gem/Kir family member 3)","dsRNA":"DRSC04250","firefly Hh reporter signal, replicate 1":1.29e5,"firefly Hh reporter signal, replicate 2":6.28e5,"firefly Hh reporter signal, replicate 3":80932,"Renilla reference signal, replicate 1":3251,"Renilla reference signal, replicate 2":34807,"call":"inactive"}
{"Target gene":"Rgk3 (Rad, Gem/Kir family member 3)","dsRNA":"DRSC04251","firefly Hh reporter signal, replicate 1":1.39e5,"firefly Hh reporter signal, replicate 2":89346,"Renilla reference signal, replicate 1":3437,"Renilla reference signal, replicate 2":8451,"call":"inactive"}
{"Target gene":"Rgk3 (Rad, Gem/Kir family member 3)","dsRNA":"DRSC04254","firefly Hh reporter signal, replicate 1":87030,"firefly Hh reporter signal, replicate 2":57493,"Renilla reference signal, replicate 1":2304,"Renilla reference signal, replicate 2":6007,"call":"inactive"}
{"Target gene":"Rgk3 (Rad, Gem/Kir family member 3)","dsRNA":"DRSC04255","firefly Hh reporter signal, replicate 1":1.05e5,"firefly Hh reporter signal, replicate 2":58265,"Renilla reference signal, replicate 1":2781,"Renilla reference signal, replicate 2":5776,"call":"inactive"}
{"Target gene":"CG13073","dsRNA":"DRSC09956","firefly Hh reporter signal, replicate 1":1.27e5,"Renilla reference signal, replicate 1":5956,"Renilla reference signal, replicate 2":3505,"call":"inactive"}
{"Target gene":"CG14270","dsRNA":"DRSC17913","firefly Hh reporter signal, replicate 1":73090,"firefly Hh reporter signal, replicate 2":2.37e5,"Renilla reference signal, replicate 1":2410,"Renilla reference signal, replicate 2":7328,"call":"inactive"}

The list goes on (2 carried over from the part before).
{"Target gene":"CG13073","dsRNA":"DRSC09956","firefly Hh reporter signal, replicate 1":1.27e5,"Renilla reference signal, replicate 1":5956,"Renilla reference signal, replicate 2":3505,"call":"inactive"}
{"Target gene":"CG14270","dsRNA":"DRSC17913","firefly Hh reporter signal, replicate 1":73090,"firefly Hh reporter signal, replicate 2":2.37e5,"Renilla reference signal, replicate 1":2410,"Renilla reference signal, replicate 2":7328,"call":"inactive"}
{"Target gene":"CG43345 + CG43346","dsRNA":"DRSC03164","firefly Hh reporter signal, replicate 1":96022,"firefly Hh reporter signal, replicate 2":1.42e5,"Renilla reference signal, replicate 1":4048,"Renilla reference signal, replicate 2":4812,"call":"inactive"}
{"Target gene":"CG12517","dsRNA":"DRSC02173","firefly Hh reporter signal, replicate 1":62744,"firefly Hh reporter signal, replicate 2":63490,"Renilla reference signal, replicate 1":1937,"Renilla reference signal, replicate 2":4613,"call":"inactive"}
{"Target gene":"p47","dsRNA":"DRSC06046","firefly Hh reporter signal, replicate 1":1.24e5,"firefly Hh reporter signal, replicate 2":93905,"Renilla reference signal, replicate 1":5620,"Renilla reference signal, replicate 2":2816,"call":"inactive"}
{"Target gene":"qjt (quijote)","dsRNA":"DRSC10060","firefly Hh reporter signal, replicate 1":1.03e5,"Renilla reference signal, replicate 1":4153,"Renilla reference signal, replicate 2":2936,"call":"inactive"}
{"Target gene":"pHCl-2 (pH-sensitive chloride channel 2)","dsRNA":"DRSC14306","firefly Hh reporter signal, replicate 1":1.49e5,"firefly Hh reporter signal, replicate 2":99616,"Renilla reference signal, replicate 1":5959,"Renilla reference signal, replicate 2":954,"call":"inactive"}
{"Target gene":"eIF3c (eukaryotic translation initiation factor 3 subunit c)","dsRNA":"DRSC06905","firefly Hh reporter signal, replicate 1":38356,"firefly Hh reporter signal, replicate 2":28214,"Renilla reference signal, replicate 1":1306,"Renilla reference signal, replicate 2":2240,"call":"inactive"}
{"Target gene":"Obp83g (Odorant-binding protein 83g)","dsRNA":"DRSC12269","firefly Hh reporter signal, replicate 1":76248,"firefly Hh reporter signal, replicate 2":1.00e5,"Renilla reference signal, replicate 1":3184,"Renilla reference signal, replicate 2":2992,"call":"inactive"}
